In PMC11183501:
These are yes or no findings as the source states them, for the method shown. Binding seen in cells or lysates may run through a third protein. Some entries that bind do so weakly or less than the wild type.

Target: T1, RRM2 (human (endogenous in HCT116)), P31350
T1 chain: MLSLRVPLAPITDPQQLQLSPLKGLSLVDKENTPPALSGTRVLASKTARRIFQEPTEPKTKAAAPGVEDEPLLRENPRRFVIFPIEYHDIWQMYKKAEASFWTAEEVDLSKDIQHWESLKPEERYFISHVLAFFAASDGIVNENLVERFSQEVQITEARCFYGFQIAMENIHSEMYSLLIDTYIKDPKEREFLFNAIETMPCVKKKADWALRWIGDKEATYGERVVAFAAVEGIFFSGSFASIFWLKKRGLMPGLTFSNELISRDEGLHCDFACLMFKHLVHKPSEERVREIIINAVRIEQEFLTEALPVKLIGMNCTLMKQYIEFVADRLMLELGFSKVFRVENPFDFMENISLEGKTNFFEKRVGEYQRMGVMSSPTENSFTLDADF
Assay: co-IP; total cellular extracts of HCT116 p53+/+ and HCT116 p53-/- cells; anti-RRM2 (anti-IgG as control) on Protein A magnetic beads, overnight at 4°C, washed three times with lysis buffer; immunoblot with anti-SIRT7
Details: remark: other sources report otherwise

B1: SIRT7, Q9NRC8 1-400 (enzyme)
chain: MAAGGLSRSERKAAERVRRLREEQQRERLRQVSRILRKAAAERSAEEGRLLAESADLVTELQGRSRRREGLKRRQEEVCDDPEELRGKVRELASAVRNAKYLVVYTGAGISTAASIPDYRGPNGVWTLLQKGRSVSAADLSEAEPTLTHMSITRLHEQKLVQHVVSQNCDGLHLRSGLPRTAISELHGNMYIEVCTSCVPNREYVRVFDVTERTALHRHQTGRTCHKCGTQLRDTIVHFGERGTLGQPLNWEAATEAASRADTILCLGSSLKVLKKYPRLWCMTKPPSRRPKLYIVNLQWTPKDDWAALKLHGKCDDVMRLLMAELGLEIPAYSRWQDPIFSLATPLRAGEEGSHSRKSLCRSREEAPPGDRGAPLSSAPILGGWFGRGCTKRTKRKKVT
For B1, the binding was “binds”.
